From article PMC5811557
Results are given in words; binding and its absence hold for the method and conditions named. In cells and extracts the contact can be indirect. Some results given as binding are weak or reduced against the parent protein; the word gives no strength. Sequences can lack the tags named with a protein.

T1: myc-EYA1 WT (human) (UniProt Q99502)
T1 sequence: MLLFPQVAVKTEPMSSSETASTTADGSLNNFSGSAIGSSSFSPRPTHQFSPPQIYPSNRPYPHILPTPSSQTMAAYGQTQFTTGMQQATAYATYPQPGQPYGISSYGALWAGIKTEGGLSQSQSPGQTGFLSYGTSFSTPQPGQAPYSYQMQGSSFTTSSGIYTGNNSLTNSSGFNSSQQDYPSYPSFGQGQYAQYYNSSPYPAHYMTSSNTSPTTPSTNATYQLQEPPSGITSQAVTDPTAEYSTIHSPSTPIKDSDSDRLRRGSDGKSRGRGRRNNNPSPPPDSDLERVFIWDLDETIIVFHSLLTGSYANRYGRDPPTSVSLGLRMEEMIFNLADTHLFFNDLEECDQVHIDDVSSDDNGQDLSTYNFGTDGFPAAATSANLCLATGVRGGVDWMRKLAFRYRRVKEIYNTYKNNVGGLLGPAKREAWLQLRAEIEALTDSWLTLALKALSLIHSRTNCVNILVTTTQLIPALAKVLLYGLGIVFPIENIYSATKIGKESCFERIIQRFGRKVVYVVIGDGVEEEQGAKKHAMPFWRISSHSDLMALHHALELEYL

T2: myc-EYA1 D297N (human) (UniProt Q99502)
T2 sequence: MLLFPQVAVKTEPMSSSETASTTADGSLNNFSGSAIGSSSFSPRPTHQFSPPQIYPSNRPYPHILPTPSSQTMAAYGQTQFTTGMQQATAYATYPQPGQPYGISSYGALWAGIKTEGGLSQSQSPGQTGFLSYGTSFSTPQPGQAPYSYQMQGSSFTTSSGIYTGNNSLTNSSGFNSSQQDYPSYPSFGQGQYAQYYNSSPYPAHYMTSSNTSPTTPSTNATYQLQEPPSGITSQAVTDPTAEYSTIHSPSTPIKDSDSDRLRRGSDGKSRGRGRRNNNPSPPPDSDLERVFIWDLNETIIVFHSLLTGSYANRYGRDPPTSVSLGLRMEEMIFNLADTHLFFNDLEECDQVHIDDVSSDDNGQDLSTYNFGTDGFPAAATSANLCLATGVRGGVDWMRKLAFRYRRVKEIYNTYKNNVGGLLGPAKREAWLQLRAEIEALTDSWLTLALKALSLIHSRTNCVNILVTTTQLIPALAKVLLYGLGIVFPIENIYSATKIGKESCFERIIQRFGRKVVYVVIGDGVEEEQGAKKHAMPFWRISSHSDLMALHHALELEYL

T3: myc-EYA3 D311N (human) (UniProt Q99504)
T3 sequence: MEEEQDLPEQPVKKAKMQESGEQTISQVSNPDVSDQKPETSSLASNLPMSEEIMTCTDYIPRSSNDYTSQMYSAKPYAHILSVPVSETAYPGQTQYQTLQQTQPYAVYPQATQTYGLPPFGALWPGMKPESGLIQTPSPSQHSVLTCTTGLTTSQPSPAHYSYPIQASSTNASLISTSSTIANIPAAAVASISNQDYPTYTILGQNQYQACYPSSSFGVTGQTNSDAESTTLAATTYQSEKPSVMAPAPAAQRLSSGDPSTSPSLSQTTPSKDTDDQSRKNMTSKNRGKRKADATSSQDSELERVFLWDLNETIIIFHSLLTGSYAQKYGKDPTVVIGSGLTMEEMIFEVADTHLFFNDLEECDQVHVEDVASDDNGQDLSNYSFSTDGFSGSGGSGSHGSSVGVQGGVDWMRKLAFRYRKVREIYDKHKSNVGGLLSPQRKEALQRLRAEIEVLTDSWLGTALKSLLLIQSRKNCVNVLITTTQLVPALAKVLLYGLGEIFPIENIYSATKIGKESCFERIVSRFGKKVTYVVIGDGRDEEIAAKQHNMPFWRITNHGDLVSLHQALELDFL


How the values were obtained:
myc-EYA1 WT (human) = target: T1, myc-EYA1 WT (human); test: co-IP; 293T cells co-expressing both tagged proteins and Src kinase (SrcY527F); myc-tagged protein immunoprecipitated with anti-myc, trapped protein detected with anti-VSV-G; lysis in 50 mM Tris-HCl pH 7.4, 150 mM NaCl, 1% NP-40, 10 mM MgCl2, 1 mM orthovanadate, 5 mM iodoacetic acid, 10% glycerol, 4 °C
myc-EYA1 D297N (human) = target: T2, myc-EYA1 D297N (human); test: as above
myc-EYA3 D311N (human) = target: T3, myc-EYA3 D311N (human); test: co-IP; 293T cells transfected with myc-EYA3 D311N, VSV-G-WDR1 and Btk kinase instead of Src; myc-tagged protein immunoprecipitated, anti-VSV-G blot

| binding (myc-EYA1 WT (human)) | binding (myc-EYA1 D297N (human)) | binding (myc-EYA3 D311N (human)) | Binder |
| --- | --- | --- | --- |
| no binding | no binding | – | VSV-G-EYA3 Y508F (enzyme, UniProt Q99504 1-573) MEEEQDLPEQPVKKAKMQESGEQTISQVSNPDVSDQKPETSSLASNLPMSEEIMTCTDYIPRSSNDYTSQMYSAKPYAHILSVPVSETAYPGQTQYQTLQQTQPYAVYPQATQTYGLPPFGALWPGMKPESGLIQTPSPSQHSVLTCTTGLTTSQPSPAHYSYPIQASSTNASLISTSSTIANIPAAAVASISNQDYPTYTILGQNQYQACYPSSSFGVTGQTNSDAESTTLAATTYQSEKPSVMAPAPAAQRLSSGDPSTSPSLSQTTPSKDTDDQSRKNMTSKNRGKRKADATSSQDSELERVFLWDLDETIIIFHSLLTGSYAQKYGKDPTVVIGSGLTMEEMIFEVADTHLFFNDLEECDQVHVEDVASDDNGQDLSNYSFSTDGFSGSGGSGSHGSSVGVQGGVDWMRKLAFRYRKVREIYDKHKSNVGGLLSPQRKEALQRLRAEIEVLTDSWLGTALKSLLLIQSRKNCVNVLITTTQLVPALAKVLLYGLGEIFPIENIFSATKIGKESCFERIVSRFGKKVTYVVIGDGRDEEIAAKQHNMPFWRITNHGDLVSLHQALELDFL |
| – | – | binds weakly | VSV-G-WDR1 WT, phosphorylated by co-expressed Btk kinase (protein, UniProt O75083 1-606, phosphotyrosine (Btk kinase mediated phosphorylation; sites not mapped)) MPYEIKKVFASLPQVERGVSKIIGGDPKGNNFLYTNGKCVILRNIDNPALADIYTEHAHQVVVAKYAPSGFYIASGDVSGKLRIWDTTQKEHLLKYEYQPFAGKIKDIAWTEDSKRIAVVGEGREKFGAVFLWDSGSSVGEITGHNKVINSVDIKQSRPYRLATGSDDNCAAFFEGPPFKFKFTIGDHSRFVNCVRFSPDGNRFATASADGQIYIYDGKTGEKVCALGGSKAHDGGIYAISWSPDSTHLLSASGDKTSKIWDVSVNSVVSTFPMGSTVLDQQLGCLWQKDHLLSVSLSGYINYLDRNNPSKPLHVIKGHSKSIQCLTVHKNGGKSYIYSGSHDGHINYWDSETGENDSFAGKGHTNQVSRMTVDESGQLISCSMDDTVRYTSLMLRDYSGQGVVKLDVQPKCVAVGPGGYAVVVCIGQIVLLKDQRKCFSIDNPGYEPEVVAVHPGGDTVAIGGVDGNVRLYSILGTTLKDEGKLLEAKGPVTDVAYSHDGAFLAVCDASKVVTVFSVADGYSENNVFYGHHAKIVCLAWSPDNEHFASGGMDMMVYVWTLSDPETRVKIQDAHRLHHVSSLAWLDEHTLVTTSHDASVKEWTITY |
